From publication PMC8642992 come the findings set out here.

Chains of the proteins cited; added tags and fusions are not shown. Lines headed by an entry give the natural chain unless they say otherwise; changes in a name come on top. A line that says so, or that is headed by a name, gives the form on record, which may keep a tag or linker.
UniProt P25054: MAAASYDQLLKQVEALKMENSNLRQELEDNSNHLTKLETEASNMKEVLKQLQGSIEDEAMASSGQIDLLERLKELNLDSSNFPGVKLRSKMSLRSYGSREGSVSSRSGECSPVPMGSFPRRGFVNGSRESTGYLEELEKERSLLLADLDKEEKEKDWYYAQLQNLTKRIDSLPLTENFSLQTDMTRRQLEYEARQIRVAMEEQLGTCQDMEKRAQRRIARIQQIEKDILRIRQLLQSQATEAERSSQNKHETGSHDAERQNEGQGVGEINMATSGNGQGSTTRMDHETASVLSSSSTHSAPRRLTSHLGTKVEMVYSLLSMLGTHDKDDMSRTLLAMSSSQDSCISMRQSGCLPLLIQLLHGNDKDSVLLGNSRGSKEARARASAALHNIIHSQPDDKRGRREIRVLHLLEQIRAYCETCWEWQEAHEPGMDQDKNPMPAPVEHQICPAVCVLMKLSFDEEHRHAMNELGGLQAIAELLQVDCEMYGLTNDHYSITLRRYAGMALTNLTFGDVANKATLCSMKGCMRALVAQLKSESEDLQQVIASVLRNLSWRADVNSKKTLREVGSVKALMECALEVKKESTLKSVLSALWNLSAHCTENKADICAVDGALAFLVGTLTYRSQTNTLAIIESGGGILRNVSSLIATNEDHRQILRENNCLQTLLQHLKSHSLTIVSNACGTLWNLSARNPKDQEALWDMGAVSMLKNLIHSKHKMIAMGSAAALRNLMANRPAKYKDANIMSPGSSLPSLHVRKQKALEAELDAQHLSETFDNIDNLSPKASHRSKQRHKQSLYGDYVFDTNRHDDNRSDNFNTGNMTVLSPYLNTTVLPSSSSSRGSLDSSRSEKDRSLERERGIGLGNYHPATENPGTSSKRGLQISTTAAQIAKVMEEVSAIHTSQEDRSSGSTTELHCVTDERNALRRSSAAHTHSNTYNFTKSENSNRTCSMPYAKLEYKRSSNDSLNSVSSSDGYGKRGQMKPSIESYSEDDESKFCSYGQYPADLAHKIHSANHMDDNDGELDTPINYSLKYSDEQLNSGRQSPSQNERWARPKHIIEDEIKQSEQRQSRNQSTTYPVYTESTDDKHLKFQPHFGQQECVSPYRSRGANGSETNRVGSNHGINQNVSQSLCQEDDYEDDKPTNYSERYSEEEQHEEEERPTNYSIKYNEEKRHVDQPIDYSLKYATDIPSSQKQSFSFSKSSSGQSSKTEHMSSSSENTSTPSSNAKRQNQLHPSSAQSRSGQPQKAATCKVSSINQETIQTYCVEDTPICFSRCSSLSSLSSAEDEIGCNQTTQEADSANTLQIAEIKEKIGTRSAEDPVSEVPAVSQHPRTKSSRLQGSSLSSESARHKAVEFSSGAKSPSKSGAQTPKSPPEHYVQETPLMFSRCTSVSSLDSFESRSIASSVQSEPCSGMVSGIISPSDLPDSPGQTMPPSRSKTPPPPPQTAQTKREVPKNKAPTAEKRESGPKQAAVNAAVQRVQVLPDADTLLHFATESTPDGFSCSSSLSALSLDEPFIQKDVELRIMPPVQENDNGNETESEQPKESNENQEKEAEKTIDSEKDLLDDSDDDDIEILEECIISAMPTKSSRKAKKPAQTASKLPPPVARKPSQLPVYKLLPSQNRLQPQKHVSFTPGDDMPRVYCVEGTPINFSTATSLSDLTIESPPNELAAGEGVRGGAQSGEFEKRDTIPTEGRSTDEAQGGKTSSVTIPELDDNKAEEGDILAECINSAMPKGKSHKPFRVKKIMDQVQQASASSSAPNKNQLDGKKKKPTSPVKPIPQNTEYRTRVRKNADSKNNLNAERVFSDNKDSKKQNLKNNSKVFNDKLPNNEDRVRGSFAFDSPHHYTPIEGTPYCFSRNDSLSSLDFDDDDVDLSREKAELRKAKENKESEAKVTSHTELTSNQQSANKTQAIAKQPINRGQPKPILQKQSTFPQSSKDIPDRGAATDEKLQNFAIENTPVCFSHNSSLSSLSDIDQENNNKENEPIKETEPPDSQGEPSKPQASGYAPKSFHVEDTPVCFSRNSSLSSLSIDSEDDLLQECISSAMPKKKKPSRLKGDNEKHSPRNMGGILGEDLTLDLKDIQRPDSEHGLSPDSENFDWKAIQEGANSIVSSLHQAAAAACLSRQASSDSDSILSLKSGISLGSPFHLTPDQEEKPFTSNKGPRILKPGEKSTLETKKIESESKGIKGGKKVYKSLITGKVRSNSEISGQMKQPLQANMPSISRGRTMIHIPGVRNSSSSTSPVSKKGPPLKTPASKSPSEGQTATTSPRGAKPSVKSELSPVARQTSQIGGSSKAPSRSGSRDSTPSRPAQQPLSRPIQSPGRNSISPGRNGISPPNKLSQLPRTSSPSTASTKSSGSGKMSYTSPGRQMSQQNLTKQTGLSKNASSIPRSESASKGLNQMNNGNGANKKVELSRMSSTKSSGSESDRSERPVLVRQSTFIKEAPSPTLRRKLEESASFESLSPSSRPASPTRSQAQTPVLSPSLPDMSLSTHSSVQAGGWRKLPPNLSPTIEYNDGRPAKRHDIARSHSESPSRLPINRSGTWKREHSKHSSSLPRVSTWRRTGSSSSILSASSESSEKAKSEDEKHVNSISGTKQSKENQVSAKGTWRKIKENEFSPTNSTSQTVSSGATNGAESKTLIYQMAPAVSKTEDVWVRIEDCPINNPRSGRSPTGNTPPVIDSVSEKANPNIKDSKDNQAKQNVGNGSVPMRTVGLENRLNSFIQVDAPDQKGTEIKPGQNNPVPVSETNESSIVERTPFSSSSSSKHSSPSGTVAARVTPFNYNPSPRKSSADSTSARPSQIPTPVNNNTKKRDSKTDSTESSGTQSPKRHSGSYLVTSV
UniProt O15169: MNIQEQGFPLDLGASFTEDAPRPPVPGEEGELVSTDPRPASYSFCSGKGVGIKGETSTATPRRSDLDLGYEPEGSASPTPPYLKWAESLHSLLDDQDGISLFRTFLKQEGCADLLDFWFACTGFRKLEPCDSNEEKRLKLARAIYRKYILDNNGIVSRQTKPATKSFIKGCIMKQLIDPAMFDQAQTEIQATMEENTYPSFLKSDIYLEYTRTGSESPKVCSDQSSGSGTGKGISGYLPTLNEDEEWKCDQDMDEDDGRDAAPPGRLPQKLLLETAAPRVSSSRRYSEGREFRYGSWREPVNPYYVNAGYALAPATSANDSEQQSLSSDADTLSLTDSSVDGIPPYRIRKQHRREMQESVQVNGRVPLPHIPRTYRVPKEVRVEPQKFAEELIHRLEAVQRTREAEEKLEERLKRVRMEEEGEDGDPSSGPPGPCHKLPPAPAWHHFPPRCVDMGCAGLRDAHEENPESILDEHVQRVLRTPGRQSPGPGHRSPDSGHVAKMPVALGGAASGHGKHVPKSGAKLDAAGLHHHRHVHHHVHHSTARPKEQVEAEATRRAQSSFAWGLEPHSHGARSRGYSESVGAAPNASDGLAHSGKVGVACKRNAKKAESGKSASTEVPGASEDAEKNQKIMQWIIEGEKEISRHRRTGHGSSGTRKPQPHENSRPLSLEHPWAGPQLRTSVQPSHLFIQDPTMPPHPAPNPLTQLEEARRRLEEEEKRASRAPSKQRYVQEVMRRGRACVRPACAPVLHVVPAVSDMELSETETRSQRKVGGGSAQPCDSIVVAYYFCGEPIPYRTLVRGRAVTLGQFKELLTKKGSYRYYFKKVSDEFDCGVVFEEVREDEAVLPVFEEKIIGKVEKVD
AXIN1-295aa (O15169, form named): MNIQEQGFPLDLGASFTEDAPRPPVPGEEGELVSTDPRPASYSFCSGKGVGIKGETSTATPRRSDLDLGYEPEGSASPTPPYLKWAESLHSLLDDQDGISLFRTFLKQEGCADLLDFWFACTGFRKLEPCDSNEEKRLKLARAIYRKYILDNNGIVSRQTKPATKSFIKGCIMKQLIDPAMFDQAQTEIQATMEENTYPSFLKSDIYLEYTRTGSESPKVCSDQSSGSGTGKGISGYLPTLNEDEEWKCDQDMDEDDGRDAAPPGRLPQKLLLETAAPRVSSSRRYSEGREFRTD

Results are given in words; binding and its absence hold for the method and conditions named. Binding seen in cells or lysates may run through a third protein. Some results given as binding are weak or reduced against the parent protein; the word gives no strength.

In this experiment the target is adenomatous polyposis coli (APC) (human (endogenous in 293 T)) (UniProt P25054). The experiment is described as follows: co-IP; IP with anti-APC antibody from lysate of 293 T cells with or without circAXIN1 overexpression (also in increasing doses); immunoblot. (In general: Immunoblotting shows a protein as a band on a membrane.)

With AXIN1 (from UniProt O15169 1-862), the binding result is on record as “binds”.

Regarding AXIN1-295aa (from UniProt O15169 1-293), the binding result was “binds”.
